The source of these data is patent publication US20060051805.

Chains of the proteins cited; added tags and fusions are not shown. A line that says so, or that is headed by a name, gives the form on record, which may keep a tag or linker.
UniProt P20226, whole entry: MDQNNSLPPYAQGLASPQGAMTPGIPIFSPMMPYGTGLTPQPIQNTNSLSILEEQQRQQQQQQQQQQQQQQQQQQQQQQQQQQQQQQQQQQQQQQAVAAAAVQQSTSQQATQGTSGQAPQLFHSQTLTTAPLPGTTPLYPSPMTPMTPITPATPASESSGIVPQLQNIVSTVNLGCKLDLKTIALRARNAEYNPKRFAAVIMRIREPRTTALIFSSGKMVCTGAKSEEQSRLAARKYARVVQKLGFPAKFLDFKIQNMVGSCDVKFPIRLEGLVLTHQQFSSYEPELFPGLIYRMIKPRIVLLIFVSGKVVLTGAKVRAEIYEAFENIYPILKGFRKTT
TFIID + TFIIB complex (Homo sapiens), one chain, as listed by the source, chain 1 of 2: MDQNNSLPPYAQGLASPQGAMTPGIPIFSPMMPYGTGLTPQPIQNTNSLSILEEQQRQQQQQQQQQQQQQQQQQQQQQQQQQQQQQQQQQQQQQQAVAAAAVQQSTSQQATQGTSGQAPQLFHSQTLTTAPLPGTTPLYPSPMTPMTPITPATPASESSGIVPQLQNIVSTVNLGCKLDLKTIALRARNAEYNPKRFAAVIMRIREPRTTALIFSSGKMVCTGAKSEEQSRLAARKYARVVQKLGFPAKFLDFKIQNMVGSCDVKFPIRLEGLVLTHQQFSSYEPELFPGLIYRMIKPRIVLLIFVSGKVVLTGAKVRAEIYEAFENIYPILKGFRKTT
TFIID + TFIIB complex (Homo sapiens), one chain, as listed by the source, chain 2 of 2: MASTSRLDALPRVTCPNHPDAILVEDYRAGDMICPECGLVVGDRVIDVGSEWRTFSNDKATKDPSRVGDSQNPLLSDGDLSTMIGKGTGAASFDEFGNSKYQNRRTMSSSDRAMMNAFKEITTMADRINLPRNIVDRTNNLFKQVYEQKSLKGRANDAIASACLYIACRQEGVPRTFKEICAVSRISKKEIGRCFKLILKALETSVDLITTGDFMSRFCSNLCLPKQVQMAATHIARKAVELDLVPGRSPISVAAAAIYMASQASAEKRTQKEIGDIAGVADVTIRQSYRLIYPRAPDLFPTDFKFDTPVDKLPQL

The exact form of at least one protein or probe is not confirmed.

Series [1] addresses TFIID (TATA box binding protein) (Homo sapiens) (UniProt P20226). Kind of series: binding assay. The note with it: [none], fluorescence correlation spectroscopy, diffusion time 178 to 237 microseconds, 5 nM DNA, 50 nM protein, purified recombinant protein, protein details: Promega, label: TAMRA, letters built from the parent sequence and the stated change.
Series [2] has as its system TFIID + TFIIB complex (Homo sapiens). Kind of series: binding assay. As to conditions: [none], fluorescence correlation spectroscopy, TFIIB added to TFIID-DNA complex, 237 to 295 microseconds, 435 with anti-TFIIB antibody, 5 nM DNA, 50 nM each protein, purified recombinant protein, protein details: Promega, label: TAMRA, letters built from the parent sequence and the stated change.

Turning to “CGAGAGCATATAAGGTGAGGTAGGA / TCCTACCTCACCTTATATGCTCTGC [25-mer oligonucleotide of TFIID-binding site]”, the binding result in series [1] and in series [2] was “binds” each time.
